{
  "sequences": {"note": "By UniProt entry, the sequences of proteins in these tests, tags left out.", "UniProt P03243, whole entry": "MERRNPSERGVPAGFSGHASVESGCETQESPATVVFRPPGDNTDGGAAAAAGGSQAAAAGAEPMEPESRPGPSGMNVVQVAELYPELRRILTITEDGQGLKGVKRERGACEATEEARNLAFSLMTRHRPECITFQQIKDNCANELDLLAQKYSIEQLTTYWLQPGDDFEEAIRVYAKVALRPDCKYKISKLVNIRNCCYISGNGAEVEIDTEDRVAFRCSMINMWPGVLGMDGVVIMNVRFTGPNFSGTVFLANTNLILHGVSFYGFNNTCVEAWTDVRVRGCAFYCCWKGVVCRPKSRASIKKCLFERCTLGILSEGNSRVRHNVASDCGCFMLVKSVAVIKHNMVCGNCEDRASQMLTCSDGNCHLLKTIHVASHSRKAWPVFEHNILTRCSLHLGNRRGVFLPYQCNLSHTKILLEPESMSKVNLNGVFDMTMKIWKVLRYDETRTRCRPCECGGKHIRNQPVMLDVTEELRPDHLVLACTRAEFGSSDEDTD", "UniProt Q9UKM9, whole entry": "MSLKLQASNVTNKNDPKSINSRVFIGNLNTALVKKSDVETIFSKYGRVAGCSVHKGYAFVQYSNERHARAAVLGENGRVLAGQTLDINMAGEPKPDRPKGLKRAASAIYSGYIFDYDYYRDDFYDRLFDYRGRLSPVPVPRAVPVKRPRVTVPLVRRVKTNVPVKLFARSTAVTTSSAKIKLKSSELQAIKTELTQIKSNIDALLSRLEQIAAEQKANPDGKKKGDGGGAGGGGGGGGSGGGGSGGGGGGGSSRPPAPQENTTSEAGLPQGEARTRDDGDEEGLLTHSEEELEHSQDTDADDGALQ", "UniProt P07910, whole entry": "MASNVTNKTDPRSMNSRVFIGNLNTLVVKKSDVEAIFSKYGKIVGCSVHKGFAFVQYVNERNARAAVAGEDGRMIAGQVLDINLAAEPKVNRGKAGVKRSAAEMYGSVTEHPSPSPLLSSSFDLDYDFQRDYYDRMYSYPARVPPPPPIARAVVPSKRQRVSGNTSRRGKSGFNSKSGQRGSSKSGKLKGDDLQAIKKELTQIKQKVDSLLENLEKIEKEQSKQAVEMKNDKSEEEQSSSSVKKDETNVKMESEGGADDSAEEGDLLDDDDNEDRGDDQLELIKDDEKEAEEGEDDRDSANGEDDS", "UniProt P03265, whole entry": "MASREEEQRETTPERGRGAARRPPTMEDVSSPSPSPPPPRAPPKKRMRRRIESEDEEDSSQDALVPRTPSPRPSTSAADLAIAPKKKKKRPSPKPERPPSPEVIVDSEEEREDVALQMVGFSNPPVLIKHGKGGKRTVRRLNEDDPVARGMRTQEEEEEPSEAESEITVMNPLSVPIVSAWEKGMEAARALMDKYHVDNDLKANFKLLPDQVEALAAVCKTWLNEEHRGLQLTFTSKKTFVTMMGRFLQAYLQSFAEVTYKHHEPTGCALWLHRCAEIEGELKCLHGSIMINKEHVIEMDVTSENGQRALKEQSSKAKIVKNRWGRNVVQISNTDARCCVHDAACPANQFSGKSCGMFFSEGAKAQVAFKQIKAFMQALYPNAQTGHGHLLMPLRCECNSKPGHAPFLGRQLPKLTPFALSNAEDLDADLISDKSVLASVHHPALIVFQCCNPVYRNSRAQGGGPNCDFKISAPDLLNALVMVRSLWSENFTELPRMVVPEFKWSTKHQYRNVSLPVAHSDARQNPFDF"},
  "source": "paper doi:10.1101/2020.06.05.136671",
  "test_in_all_cases": "co-IP",
  "key": {"[1]": {"molecular_target": "Adenovirus serotype 5 (Ad5) E1B55K (Adenovirus serotype 5 (Ad5)) (UniProt P03243)"}, "[2]": {"molecular_target": "RALY (human (endogenous in HeLa)) (UniProt Q9UKM9)"}, "[3]": {"molecular_target": "hnRNP-C (human (endogenous in HeLa)) (UniProt P07910)"}},
  "note": "Results are given in words; binding and its absence hold for the method and conditions named. In cells and extracts the contact can be indirect. Some results given as binding are weak or reduced against the parent protein; the word gives no strength.",
  "data": [
    {"substance": "RALY (from UniProt Q9UKM9 1-306)", "values": [
      {"measurement": "binding", "setting": "[1]", "value": "binds"}
    ]},
    {"substance": "Adenovirus serotype 5 DBP (from UniProt P03265 1-529)", "values": [
      {"measurement": "binding", "setting": "[1]", "value": "no binding"},
      {"measurement": "binding", "setting": "[2]", "value": "no binding"},
      {"measurement": "binding", "setting": "[3]", "value": "no binding"}
    ]},
    {"substance": "Adenovirus serotype 5 (Ad5) E1B55K (from UniProt P03243 1-496)", "values": [
      {"measurement": "binding", "setting": "[2]", "value": "binds"},
      {"measurement": "binding", "setting": "[3]", "value": "binds"}
    ]}
  ]
}
